Laboratory results from patent publication US6753295B1, “Plant activator, process for producing the same, activation method, activity promoter and method for applying the promoter” (Hokkaido Green Kosan, Incorporated, priority 1999, dated 2004).
Some entries share one result that the patent states for a list of compounds.

Tested on: Rhizoctonia solani (AG-1IA)
Assay: paper disk plate method, elongation of hyphae
Format: cell-based
Conditions: assayed at 5000, 2500, 1250 and 625 ppm

Substance | concentration that inhibited elongation of hyphae of Rhizoctonia solani [ppm]
Ac-Aib-Ala-Aib-Aib-Aib- . . . [component D] | ≥ 625
Ac-Aib-Ala-Aib-Aib-Aib-Aib-Gln-Aib-Aib- . . . [component A] | ≥ 1250
